Library screening results

The filed quantity is “Percent Effect” (%).
The record does not define 0% and 100%; most values in the screen are far below 50% and negative numbers occur (in some assays of this library far below -100).
This is an unselected part of the compounds tested.

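Whole-cell assay for inhibitors of Mycobacterium tuberculosis growth, labelled Cornell in the record; the read-out is not stated. The concentration is filed as 10 mM, unlikely as a test dose, so the dose is not known. Higher means stronger inhibition (inferred from two other growth screens of the library). Of about 53,000 compounds tested this way, about 900 (1.7%) reached 50% or more in at least one test.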

CC(C)NC(=O)CN(C1CC1)C(C)C1CC1 (centres undefined) gave 17.58%.
Cn1ccnc1-c1noc(NCc2ccc(Br)cc2)n1 gave 17.26%.
CCCN1CCC2(CC1)COc1ccccc1S(=O)(=O)N(CC1CC1)C2.O=C(O)C(F)(F)F gave -1.688%.
COCCNC(=O)CCN1C(=O)CC2(CCCC2)C1=O gave 22.24%.
O=C(O)C(F)(F)F.[H][C@@]12C[C@H](C(=O)N3CCCCO3)CN(Cc3ccc(F)cc3)[C@]1([H])CCO2 gave -10.8%.
CCS(=O)(=O)N1CCC(c2nc3ccc(-c4ccccc4)cn3n2)CC1 gave 7.476%.
Cc1nc2cc(-c3nccn3C)nn2c(N2CCC(O)CC2)c1C.Cl gave -21.56%.
COc1ccc(C(=O)N2CCOCC2c2ccc(C)o2)cc1 (centres undefined) gave -0.3472%.
CCc1c(C(=O)N2CCN(CC(N)=O)CC2)cnn1C(C)(C)C gave -30.22%.
CCNC(=O)NC1CN(Cc2ccccc2N(C)C)C[C@@H]1OC (some centres undefined) gave -5.937%.
Cc1noc(CN(Cc2cccs2)C2CC2)n1 gave -2.768%.
CC(C)(CO)CNC(=O)c1cc(-c2cc[nH]n2)n2ccccc12.O=C(O)C(F)(F)F gave 14.52%.
Cc1cc(C)c(C(=O)N2CCn3nc(C(=O)NCCN(C)C)cc3C2)[nH]1 gave 2.898%.
c1cc(CNCCc2cn3ccccc3n2)c2c(c1)OCCCO2 gave 19.07%.
O=C(O)C(F)(F)F.O=C(c1ccoc1)N1CCOC2(COCCN(CC3CC3)C2)C1 (centres undefined) gave 6.574%.
c1ccc2c(N3CCOC(Cn4cccn4)C3)ncnc2c1 (centres undefined) gave 8.568%.
CCc1ccc(CCC(=O)N2CCOCC2c2ncon2)cc1 (centres undefined) gave 12.12%.
N#Cc1c(Cl)nsc1NCc1ccc(N2CCC(CO)CC2)cc1 gave 51.2%.
CC1(C)CN(c2cc(C3CC3)ncn2)C[C@]1(C)O gave -27.36%.
O=c1ccc2c(n1CC1CC1)CCN(c1ncccn1)CC2 gave 13.26%.
N[C@H]1CN(C(=O)c2ccc3[nH]c(CO)nc3c2)C[C@@H]1c1ccccc1 gave -36.21%.
Cc1cc(C)n(CC2CN(CCOc3cccc(C#N)c3)CCO2)n1 (centres undefined) gave 25.78%.
c1ccc(C2(CNCc3cnc(N4CCOCC4)nc3)CC2)cc1 gave 16.52%.
Cc1ccc(C2COCCN2C(=O)c2ccc(C)s2)o1 (centres undefined) gave 17.81%.
N#Cc1cccc(OC2CCN(C(=O)c3cncc(O)c3)CC2)c1 gave 0.7776%.
Cc1c(-c2ccccc2)nc2c(c(C)c(C)n2CCN(C)C)c1N gave -21.68%.
O=C(Cc1c(F)cccc1Cl)Nc1cc(N2CCCC2)ncn1 gave -8.94%.
Cc1nc(CN(C)CC2CCCN2c2cccnn2)oc1C (centres undefined) gave 1.959%.
O=C(NC1CC1)c1cc(NC(=O)N2CCOCC2)ccc1Cl gave -32.05%.
[H][C@@]12CS(=O)(=O)C[C@]1([H])N(C(=O)CSc1ccccn1)CCN2CC=C(C)C gave 23.35%.
CSCc1ccc(CNCCCN2CCOCC2)o1 gave -8.336%.
O=C(COCc1nc(-c2ccncc2)no1)N1CCCCCC1 gave -10.02%.
[H][C@]12CC[C@]([H])(CN(S(=O)(=O)N(C)C)C1)N(C(=O)Cn1ccnc1CC)C2 gave 21.76%.
CC(C)(C)OC(=O)NCC1CCN(C(=O)c2ccccc2O)C1 (centres undefined) gave 8.936%.
Cc1cc(C)n(Cc2cccc(C(=O)NCCN3CCOCC3)c2)n1 gave 4.002%.
CCn1c(O)c(C(C)=O)c2cc(C)ccc21 gave 33.85%.
CC(=O)NCC1CCC2(CCN(c3ncc(C(C)=O)c(C)n3)CC2)O1 (centres undefined) gave -23.13%.
CCN1CCN(C2(C(=O)NC3CCCC3)Cc3ccccc3C2)CC1 gave 21.15%.
O=C(NCC1(O)CCC1)c1c(O)cc(Cl)cc1Cl gave 36.04%.
CNC(=O)c1nn(C)cc1NC(=O)C(C)n1ncc(Cl)c1C (centres undefined) gave 6.503%.
CCNC(=O)CN1CCSC2(CCCCC2)C1 gave 30.01%.
Cc1ncsc1CN1CCOC(C)(C(=O)N(C)C)C1 (centres undefined) gave -26.4%.
Cc1nn(CC(=O)N2CCN(Cc3cnn(C)c3C)CC2)cc1Cl gave 8.509%.
Cc1nc(N(C)C)nc(C)c1NC(=O)c1ccco1 gave 6.605%.
CC(NCCCn1ccnc1)c1ccc(N2CCCS2(=O)=O)cc1 (centres undefined) gave -66.29%.

The first 4 entries again:

CC(C)NC(=O)CN(C1CC1)C(C)C1CC1 (centres undefined) read 17.58%.
Cn1ccnc1-c1noc(NCc2ccc(Br)cc2)n1 read 17.26%.
CCCN1CCC2(CC1)COc1ccccc1S(=O)(=O)N(CC1CC1)C2.O=C(O)C(F)(F)F read -1.688%.
COCCNC(=O)CCN1C(=O)CC2(CCCC2)C1=O read 22.24%.

From ChEMBL document CHEMBL3988442, “University of Dundee, Small-Polar-MMV Screening Library” (2021).